For 61 compounds, AC50 results are on record in PubChem BioAssay AID463205 (Broad Institute, 2010).

The campaign covered roughly 2,400 compounds. About 20 (0.8%) were called active.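 How the source made its calls: active means AC50 no more than ten times the highest tested concentration, or full inhibition at every dose giving a flat fit (cut at about 30 µM in these data); inconclusive means flat fit with activity between 30% and 70%, or poor-quality invalid fit; inactive means AC50 more than ten times the top tested dose.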 This is one part of the list.

A short description of this assay: inhibitors of ADP-Glo detection reagents, dose response, artefact control for GSK-3a inhibitor project, biochemical, luminescence, cell-free, homogeneous (AID 463205).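 Further: kinase-free counter-screen against the ADP-Glo detection reagents only; potency is for inhibitors that reduce the luminescence signal.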 The settings on record: 5 uM ADP.
As for `O=C1NC(c2ccccc2)(C(F)(F)F)C(=O)N1Cc1cccnc1` (stereo unspecified), the AC50 was inactive: > 30 µM. With `COc1ccc(C2c3sc(=O)[nH]c3SC3C4CCC(C4)C23)cc1` (stereo unspecified) the figure was inactive: > 30 µM; with `CC(C)(C)OC(=O)N1CCC(NC(=O)c2[nH]cnc2C(=O)Nc2ccccc2)CC1`, inactive: > 30 µM; with `COc1ccc(-c2nc3ncccn3c2Nc2ccccc2)cc1`, inactive: > 30 µM. On to `CCOc1ccc(-n2c(SCC(=O)Nc3ccccc3C)n[nH]c2=O)cc1`, for which the AC50 is inactive: > 30 µM. Under `CC1CCCCC12NC(=O)N(CC(=O)Nc1sc3c(c1C(N)=O)CCC3)C2=O` (stereo unspecified) stands inactive: > 30 µM; under `Nc1c(CO)nnn1-c1ccccc1`, inactive: > 30 µM; under `N#CC1=C2SCN(c3ccc(F)cc3)CN2C(=O)CC1c1cccc(F)c1` (stereo unspecified), inactive: > 30 µM. Under `S=C(Nc1cccnc1)Nc1cccc2cnccc12` stands inactive: > 30 µM; under `CCCCOc1ccc(-c2nnc(N)s2)cc1`, inactive: > 30 µM; under `Cc1cc(Nc2ccc(C(=O)O)cc2)nc(N)n1`, inactive: > 30 µM. Under `COc1cc(/C=C2\S/C(=N/S(=O)(=O)Cc3ccccc3)NC2=O)c([N+](=O)[O-])cc1OC` stands inactive: > 30 µM; under `Cc1ccc(C(=O)Nc2nnc(C)s2)cc1`, inactive: > 30 µM; under `NC1=NC(=O)/C(=C/c2cccs2)S1`, inactive: > 30 µM.

With `COc1ccc(NC(=O)/C(C#N)=C\C=C\c2ccco2)cc1`, the AC50 was inactive: > 30 µM. With `Cc1ccc(-c2cn3cccnc3n2)cc1NC(=O)c1cccs1` the figure was inactive: > 30 µM; with `CC(=O)Nc1ccc(Nc2ncnc(N)c2[N+](=O)[O-])cc1`, inactive: > 30 µM.

For the compound `O=c1cc(-c2cccnc2)oc2c1ccc1ccccc12`, the AC50 is inactive: > 30 µM. Under `O=C(c1ccco1)c1cn(CC(=O)N2CCCCC2)c2ccccc12` stands inactive: > 30 µM; under `CC(=O)C1C(c2ccccc2)c2c(n[nH]c2C)CC1(C)O` (stereo unspecified), inactive: > 30 µM. With `CCOc1cc2c(C#N)c(N3CCCCC3)nc(N)c2c(N)n1` the figure was inactive: > 30 µM; with `Cc1cc(C)nc(NC(=O)c2ccc(Br)s2)n1`, inactive: > 30 µM; with `CC(=O)c1cnc(Nc2ccccc2)s1`, inactive: > 30 µM. Under `COc1ccc(S(=O)(=O)N[C@@H](CC(C)C)C(=O)O)cc1` stands inactive: > 30 µM; under `CSc1cccc(NC(=O)c2nnn(Cc3ccccc3)c2N)c1`, inactive: > 30 µM; under `COC(=O)c1cc(O)c(OCc2ccccc2)c(O)c1`, inactive: > 30 µM. As for `CCN1C(=O)/C(=C\c2ccco2)C(C(=O)OC)=C1C`, the AC50 was inactive: > 30 µM.

With `COc1cc(C2CC(=O)N3CN(Cc4ccco4)CSC3=C2C#N)ccc1OCc1ccccc1` (stereo unspecified), the AC50 was inactive: > 30 µM.

With `COC(=O)[C@@H](NC(=O)NCc1ccccc1F)C(C)C`, the AC50 is inactive: > 30 µM. Under `COc1ccc(-c2oc3cc(O)c(OC)c(O)c3c(=O)c2OC)cc1` stands inactive: > 30 µM. Under `NC(=O)c1c(NC(=O)C(=O)N2CCOCC2)sc2c1CCC2` stands inactive: > 30 µM; under `Cc1nn2cc(-c3ccccc3)nc2[nH]c1=O`, inactive: > 30 µM. For `Cc1csc(NC(=O)c2ccc3c(c2)OCO3)n1`, the AC50 is inactive: > 30 µM. Under `C=CC(=O)Nc1sc2c(c1C(N)=O)CCCC2` stands inactive: > 30 µM; under `Cc1[nH][nH]c(=O)c1[C@@H](c1ccccc1[N+](=O)[O-])C(C#N)C#N`, inactive: > 30 µM; under `Nc1ncc(-c2ccccc2)c(-c2ccc(OCc3ccccc3)cc2O)n1`, inactive: > 30 µM. On to `COc1cc(/C=N/NC(=O)c2ccc(COc3ccccc3Cl)o2)cc(Br)c1O`, for which the AC50 is inactive: > 30 µM. Under `O=C(O)c1ccc(N=c2oc3cc(O)ccc3cc2C(=O)NCc2ccccc2)cc1` stands inactive: > 30 µM; under `COc1ccc(C(=O)Nc2nc(C)c(C)s2)cc1OC`, inactive: > 30 µM.

As for `COc1ccc(OC)c(S(=O)(=O)N2CCN(C(=O)c3cc(C4CC4)nn3-c3ccccc3)CC2)c1`, the AC50 is inactive: > 30 µM. Regarding `CCCOc1cc2c(C#N)c(N3CCCC3)nc(N)c2c(N)n1`, the AC50 is inactive: > 30 µM. Under `Cc1cc(OC(=O)c2c(C)cc(OC(=O)c3c(C)cc(O)cc3O)cc2O)cc(O)c1C(=O)O` stands inactive: > 30 µM. Under `Cc1nc(SCCC(C)C)c([N+](=O)[O-])[nH]1` stands inactive: > 30 µM; under `O=C(N/N=C/c1cn[nH]c1-c1ccccc1)c1ccco1`, inactive: > 30 µM; under `COc1ccccc1N=c1oc2c(OC)cccc2cc1C(=O)NCc1ccco1`, inactive: > 30 µM. With `COc1ccc(CC(=O)N2CCOCC2)cc1` the figure was inactive: > 30 µM; with `CC(=O)Nc1ccc(S(=O)(=O)NC(C)c2ccncc2)cc1` (stereo unspecified), inactive: > 30 µM; with `CCN1/C(=C/c2ccc3ccccc3[n+]2CC)C=Cc2ccccc21`, inactive: > 30 µM. Regarding `Cc1cc(-c2ccccc2)c2c3c(c(-c4ccccc4)n2n1)c(=O)n(C)c(=O)n3C`, the AC50 is inactive: > 30 µM. Under `c1csc(-c2nn3cnnc3c3ccccc23)c1` stands inactive: > 30 µM; under `CC(C)c1ccc(/C=N/NC(=O)c2nnn(-c3nonc3N)c2CN(C)C2CCCCC2)cc1`, inactive: > 30 µM; under `S=C(Nc1ccc(Cl)cc1)Nc1cccc2cnccc12`, inactive: > 30 µM. With `CC(C)(C)C(=O)/C=c1\[nH]c(=O)/c(=C\c2ccc(F)cc2)s1` the figure was inactive: > 30 µM; with `COc1cc(C(=O)NCCC(=O)NCCN2CCOCC2)cc(OC)c1OC`, inactive: > 30 µM.

Take `O=C(C1CCC1)N1CCC(c2nc3c(nnn3Cc3c(F)cccc3Cl)c(=O)[nH]2)CC1`: the AC50 was inactive: > 30 µM.

`COC(=O)C1=C(C)Nc2ncnn2C1c1ccco1` (stereo unspecified): the AC50 was inactive: > 30 µM. Under `Cc1ccnc(NC(=O)Cc2c(F)cccc2Cl)c1` stands inactive: > 30 µM; under `COC(=O)c1c(C(C)=O)cnc2ccc(Br)cc12`, inactive: > 30 µM. With `COc1cc(CN2CCN(Cc3ccc(C)cc3)CC2)c([N+](=O)[O-])cc1OC`, the AC50 was inactive: > 30 µM. With `COc1ccc2ccccc2c1C1CC(=O)N2CN(Cc3ccco3)CSC2=C1C#N` (stereo unspecified) the figure was inactive: > 30 µM. For the compound `CC1(C)Oc2ccc3ccc(=O)oc3c2-c2cn[nH]c21`, the AC50 was inactive: > 30 µM.
